This passage reports IC50 results from US20220071978A1, “CANCER TREATMENT PHARMACEUTICAL COMPOSITION CONTAINING CDK INHIBITOR” (SUMITOMO DAINIPPON PHARMA CO., LTD., priority 2018, published 2022).

The test system of one experiment is AILNCaP14 cell line. The experiment in a line: Cell proliferation suppression test (crystal violet staining). The format is cell-based. Conditions: 336 h, two weeks culture. The procedure:
(§1) 5×10^3 cells of the LNCaP cell line, 4×10^4 cells of the AILNCaP14 cell line, and 6×10^4 cells of the AILNCaP15 cell line were each seeded on a 24-well plate to which 1 mL/well of medium was dispensed. […] After culturing each cell line for an additional two weeks, the status of cell proliferation was measured by cell staining (Bommi-Reddy et al. Proc Natl Acad Sci USA. 105: 16484-16489 (2008)) using crystal violet.
(§2) The final concentrations of alvocidib were set to be 0.125, 0.25, 0.5, and 1.0 uM.

In the next experiment the test system is AILNCaP15 cell line. Described as above. Conditions: 336 h, two weeks culture. Type of experiment: cell-based. How it is done: as §1, §2

By IC50 is commonly meant the concentration needed to halve the response being measured.

Take `CNC(=O)c1ccc(N2C(=S)N(c3ccc(C#N)c(C(F)(F)F)c3)C(=O)C2(C)C)cc1F` [enzalutamide]: the IC50 in the experiment on AILNCaP14 cell line and with AILNCaP15 cell line was above 5 µM each time.
